According to patent US8093302B2, “Substituted tetralins as selective estrogen receptor-β agonists” (Eli Lilly and Company, priority 2006, dated 2012):
Some entries share one result that the patent states for a list of compounds. Some compounds share one range, which may span the group rather than tell each member.

Sequences of proteins named here, by UniProt entry; tags and fusion partners are left off.
UniProt Q92731, whole entry: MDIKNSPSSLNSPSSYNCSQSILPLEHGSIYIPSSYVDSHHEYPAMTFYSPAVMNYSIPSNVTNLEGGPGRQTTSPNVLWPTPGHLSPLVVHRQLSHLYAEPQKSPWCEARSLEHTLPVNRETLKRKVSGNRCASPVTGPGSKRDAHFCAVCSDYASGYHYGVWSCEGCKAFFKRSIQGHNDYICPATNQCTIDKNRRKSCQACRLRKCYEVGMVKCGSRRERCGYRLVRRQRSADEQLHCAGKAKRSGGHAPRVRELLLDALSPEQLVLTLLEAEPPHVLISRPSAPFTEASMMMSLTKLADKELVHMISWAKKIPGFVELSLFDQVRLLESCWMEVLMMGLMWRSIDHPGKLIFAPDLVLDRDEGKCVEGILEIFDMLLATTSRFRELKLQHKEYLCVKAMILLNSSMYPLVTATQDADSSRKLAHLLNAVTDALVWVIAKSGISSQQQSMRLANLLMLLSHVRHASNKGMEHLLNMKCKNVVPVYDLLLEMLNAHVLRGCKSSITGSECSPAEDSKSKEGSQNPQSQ

Molecular target: T1, ER-β Receptor (Homo sapiens, UniProt Q92731)
T1 construct: purchased PanVera
Test: competition ER binding assay (3H-Estradiol), ER-β
Conditions: approximate range; Ki from IC50 by Cheng-Prusoff

Row | Compound | binding affinities (Ki) to the ER-β subtype [nM]
1 | C[C@@H]1c2ccc(O)cc2[C@@H]2CCCC[C@@H]2[C@@H]1c1ccc(O)cc1 (racemic) [Example 58, 9-(4-Hydroxy-phenyl)-10-methyl-4b,5,6,7,8,8a,9,10-octahydro-phenanthren-3-ol] | 0.2 to 500
2 | NC(=O)c1cc(O)cc2c1C[C@@H](c1ccc(O)cc1)[C@H]1CCCC[C@@H]21 (relative stereo) [Example 26, 3-Hydroxy-9-(4-hydroxy-phenyl)-4b,5,6,7,8,8a,9,10-octahydro-phenanthrene-1-carboxylic acid amide] | 0.2 to 500
3 | CN(C)CCCc1cc2c(cc1O)[C@@H]1CCCC[C@@H]1[C@H](c1ccc(O)cc1)C2 (relative stereo) [Example 41, 2-(3-Dimethylamino-propyl)-9-(4-hydroxy-phenyl)-4b,5,6,7,8,8a,9,10-octahydro-phenanthren-3-ol] | 0.2 to 500
4 | Oc1ccc([C@@H]2Cc3c(-c4ccc(Cl)cc4)cc(O)cc3[C@@H]3CCC[C@H]23)cc1 (stereo in doubt) [Example 11, 6-(4-Chloro-phenyl)-4-(4-hydroxy-phenyl)-2,3,3a,4,5,9b-hexahydro-1H-cyclopenta[a]naphthalen-8-ol] | 0.2 to 500
5 | COC(=O)c1cc(O)cc2c1C[C@@H](c1ccc(O)cc1)[C@H]1CCC[C@@H]21 (stereo in doubt) [Example 12, 8-Hydroxy-4-(4-hydroxy-phenyl)-2,3,3a,4,5,9b-hexahydro-1H-cyclopenta[a]naphthalene-6-carboxylic acid methyl ester] | 0.2 to 500
6 | O=C(O)c1cc(O)cc2c1C[C@@H](c1ccc(O)cc1)[C@H]1CCC[C@@H]21 (stereo in doubt) [Example 13, 8-Hydroxy-4-(4-hydroxy-phenyl)-2,3,3a,4,5,9b-hexahydro-1H-cyclopenta[a]naphthalene-6-carboxylic acid] | 0.2 to 500
7 | Oc1ccc([C@@H]2Cc3c(CBr)cc(O)cc3[C@@H]3CCC[C@H]23)cc1 (stereo in doubt) [Example 14, 6-Bromomethyl-4-(4-hydroxy-phenyl)-2,3,3a,4,5,9b-hexahydro-1H-cyclopenta[a]naphthalen-8-ol] | 0.2 to 500
8 | N#CCc1cc(O)cc2c1C[C@@H](c1ccc(O)cc1)[C@H]1CCC[C@@H]21 (stereo in doubt) [Example 15, [8-Hydroxy-4-(4-hydroxy-phenyl)-2,3,3a,4,5,9b-hexahydro-1H-cyclopenta[a]naphthalen-6-yl]-acetonitrile] | 0.2 to 500
9 | COCc1cc(O)cc2c1C[C@@H](c1ccc(O)cc1)[C@H]1CCC[C@@H]21 (stereo in doubt) [Example 16, 4-(4-Hydroxy-phenyl)-6-methoxymethyl-2,3,3a,4,5,9b-hexahydro-1H-cyclopenta[a]naphthalen-8-ol] | 0.2 to 500
10 | [N-]=[N+]=NCc1cc(O)cc2c1C[C@@H](c1ccc(O)cc1)[C@H]1CCC[C@@H]21 (stereo in doubt) [Example 17, 6-Azidomethyl-4-(4-hydroxy-phenyl)-2,3,3a,4,5,9b-hexahydro-1H-cyclopenta[a]naphthalen-8-ol] | 0.2 to 500
11 | Oc1ccc([C@@H]2Cc3cc(Br)c(O)cc3[C@@H]3CCCC[C@H]23)cc1 (stereo in doubt) [Example 27, 2-Bromo-9-(4-hydroxy-phenyl)-4b,5,6,7,8,8a,9,10-octahydro-phenanthren-3-ol] | 0.2 to 500
12 | CC(=O)c1cc2c(cc1O)[C@@H]1CCCC[C@@H]1[C@H](c1ccc(O)cc1)C2 (stereo in doubt) [Example 28, 1-[3-Hydroxy-9-(4-hydroxy-phenyl)-4b,5,6,7,8,8a,9,10-octahydro-phenanthren-2-yl]-ethanone] | 0.2 to 500
13 | CC(O)c1cc2c(cc1O)[C@@H]1CCCC[C@@H]1[C@H](c1ccc(O)cc1)C2 (stereo in doubt) [Example 29, 2-(1-Hydroxy-ethyl)-9-(4-hydroxy-phenyl)-4b,5,6,7,8,8a,9,10-octahydro-phenanthren-3-ol] | 0.2 to 500
14 | O=C1CCc2cc3c(cc2O1)[C@@H]1CCCC[C@@H]1[C@H](c1ccc(O)cc1)C3 (stereo in doubt) [Example 35, 5-(4-Hydroxy-phenyl)-1,2,3,4,4a,5,6,8,9,12b-decahydro-11-oxa-benzo[a]anthracen-10-one] | 0.2 to 500
15 | CNC(=O)CCc1cc2c(cc1O)[C@@H]1CCCC[C@@H]1[C@H](c1ccc(O)cc1)C2 (stereo in doubt) [Example 36, 3-[3-Hydroxy-9-(4-hydroxy-phenyl)-4b,5,6,7,8,8a,9,10-octahydro-phenanthren-2-yl]-N-methyl-propionamide] | 0.2 to 500
16 | O=C(CCc1cc2c(cc1O)[C@@H]1CCCC[C@@H]1[C@H](c1ccc(O)cc1)C2)N1CCCCC1 (stereo in doubt) [Example 37, 3-[3-Hydroxy-9-(4-hydroxy-phenyl)-4b,5,6,7,8,8a,9,10-octahydro-phenanthren-2-yl]-1-piperidin-1-yl-propan-1-one] | 0.2 to 500
17 | CN(C)C(=O)CCc1cc2c(cc1O)[C@@H]1CCCC[C@@H]1[C@H](c1ccc(O)cc1)C2 (stereo in doubt) [Example 38, 3-[3-Hydroxy-9-(4-hydroxy-phenyl)-4b,5,6,7,8,8a,9,10-octahydro-phenanthren-2-yl]-N,N-dimethyl-propionamide] | 0.2 to 500
18 | NC(=O)CCc1cc2c(cc1O)[C@@H]1CCCC[C@@H]1[C@H](c1ccc(O)cc1)C2 (stereo in doubt) [Example 39, 3-[3-Hydroxy-9-(4-hydroxy-phenyl)-4b,5,6,7,8,8a,9,10-octahydro-phenanthren-2-yl]-propionamide] | 0.2 to 500
19 | COCCCc1cc2c(cc1O)[C@@H]1CCCC[C@@H]1[C@H](c1ccc(O)cc1)C2 (stereo in doubt) [Example 42, 9-(4-Hydroxy-phenyl)-2-(3-methoxy-propyl)-4b,5,6,7,8,8a,9,10-octahydro-phenanthren-3-ol] | 0.2 to 500
20 | OCc1cc2c(cc1O)[C@@H]1CCCC[C@@H]1[C@H](c1ccc(O)cc1)C2 (stereo in doubt) [Example 44, 2-Hydroxymethyl-9-(4-hydroxy-phenyl)-4b,5,6,7,8,8a,9,10-octahydro-phenanthren-3-ol] | 0.2 to 500
21 | O=C(O)[C@H]1c2ccc(O)cc2[C@@H]2CCCC[C@@H]2[C@@H]1c1ccc(O)cc1 (stereo in doubt) [Example 47, 6-Hydroxy-10-(4-hydroxy-phenyl)-1,2,3,4,4a,9,10,10a-octahydro-phenanthrene-9-carboxylic acid] | 0.2 to 500
22 | COC(=O)[C@H]1c2ccc(O)cc2[C@@H]2CCCC[C@@H]2[C@@H]1c1ccc(O)cc1 (stereo in doubt) [Example 48, 6-Hydroxy-10-(4-hydroxy-phenyl)-1,2,3,4,4a,9,10,10a-octahydro-phenanthrene-9-carboxylic acid methyl ester] | 0.2 to 500
23 | Oc1ccc([C@H]2[C@H]3CCCC[C@H]3c3cc(O)ccc3[C@@H]2CBr)cc1 (stereo in doubt) [Example 49, 10-Bromomethyl-9-(4-hydroxy-phenyl)-4b,5,6,7,8,8a,9,10-octahydro-phenanthrene-3-ol] | 0.2 to 500
